Data from the supplement of paper PMC3334620.
Whole data set: some 33,000 sequences, median “E-score (-0.5 to 0.5)” near -0.016, cut for the highest 2% near 0.3. Some of the results follow.

Target: T1, Yer184c (UniProt P39961)
T1 sequence: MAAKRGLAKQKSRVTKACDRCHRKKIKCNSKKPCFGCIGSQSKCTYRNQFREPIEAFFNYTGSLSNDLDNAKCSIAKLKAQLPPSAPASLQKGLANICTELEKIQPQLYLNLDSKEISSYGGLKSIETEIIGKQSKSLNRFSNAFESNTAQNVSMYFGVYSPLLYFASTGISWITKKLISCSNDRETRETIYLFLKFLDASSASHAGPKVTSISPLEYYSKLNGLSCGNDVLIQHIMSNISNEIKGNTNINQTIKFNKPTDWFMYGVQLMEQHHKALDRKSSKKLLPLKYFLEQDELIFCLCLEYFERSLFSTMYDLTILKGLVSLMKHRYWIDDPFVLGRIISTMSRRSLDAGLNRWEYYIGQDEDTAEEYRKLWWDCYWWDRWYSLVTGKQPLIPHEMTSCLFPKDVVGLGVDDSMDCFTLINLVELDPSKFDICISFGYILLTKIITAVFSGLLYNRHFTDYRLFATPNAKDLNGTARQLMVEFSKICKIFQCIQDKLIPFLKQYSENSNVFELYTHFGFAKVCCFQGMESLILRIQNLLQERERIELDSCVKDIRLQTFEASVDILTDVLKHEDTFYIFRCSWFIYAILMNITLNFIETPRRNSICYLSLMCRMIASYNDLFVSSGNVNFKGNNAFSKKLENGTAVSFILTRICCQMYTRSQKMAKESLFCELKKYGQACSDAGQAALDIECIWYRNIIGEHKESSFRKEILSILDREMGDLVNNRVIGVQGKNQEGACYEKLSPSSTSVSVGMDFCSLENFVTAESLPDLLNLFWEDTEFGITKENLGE
Assay: PBM E-score (8-mer binding enrichment) (E-score (-0.5 to 0.5)); higher = stronger / more preferred TF binding
Settings: protein concentration: 100 nM; construct: GST-full length
Procedure, shortened: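 The E-score, a modified Wilcoxon-Mann-Whitney statistic, was computed by the Universal PBM Analysis Suite for every ungapped eight-base word pooled with its reverse complement. Scans behind it were normalised with masliner after bound GST-tagged yeast transcription factors were detected with fluorescent anti-GST. The proteins, at about 100-200 nM, had been applied to universal all-10-mer Agilent arrays made double-stranded by primer extension.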

| Sequence | PBM E-score |
| --- | --- |
| ACACATGG | -0.084 |
| AAGTCCCT | -0.258 |
| TCCCCTCA | -0.2 |
| GGAGAAGA | -0.186 |
| CTTTGCTA | -0.0566 |
| GCGTTTAC | -0.0519 |
| CGCCGTAA | 0.194 |
| CCGCATAG | 0.0243 |
| GCTTAAAC | 0.0277 |
| CTCGCCAA | -0.0568 |
| ACCATGTA | -0.0394 |
| ATTCCGTA | 0.322 |
| ATCACCGG | 0.112 |
| ATTTGGTG | -0.0614 |
| AGGAGCAG | -0.262 |
| CATTACTC | 0.0786 |
| GTAATGAA | 0.0451 |
| AAACCATT | -0.107 |
| ATGTGCCC | -0.0806 |
| CCTGAGTC | -0.0246 |
| GAGAACGC | -0.153 |
| ACTTAGGG | 0.0512 |
| CGGTTTGC | 0.149 |
| AAAGATTG | -0.188 |
| CTGAATCC | 0.0323 |

| Sequence | PBM E-score |
| --- | --- |
| GGGCGGCA | -0.0593 |
| CCGAGCGG | 0.228 |
| AGGAATCG | 0.0578 |
| AGCCTCAG | -0.144 |
| GTCATTTA | -0.143 |
| CATGGTGC | -0.169 |
| AGGCGATC | -0.168 |
| AAGATCCC | 0.00396 |
| ACCGCGAT | 0.124 |
| CGTGGTGC | -0.0856 |
| ATTGGTGA | -0.0742 |
| GGATGAGA | -0.0959 |
| GAGTTCAA | 0.155 |
| CCACATGC | -0.162 |
| ATTACACA | 0.0824 |
| CAGGAGCA | -0.0755 |
| GCGGCCGA | 0.242 |
| CATCGTCC | 0.0738 |
| AAGACTGC | -0.2 |
| TAAATAGA | 0.0603 |
| AGCGACTG | -0.0337 |
| ACACAGCA | 0.0107 |
| CACCGCGC | -0.119 |
| AAGTTTAG | 0.0157 |
| AGGGTTTG | -0.165 |

| Sequence | PBM E-score |
| --- | --- |
| ATCACACG | 0.0979 |
| ATTCTGAA | 0.147 |
| CGGTTTGA | 0.149 |
| AACAATAG | -0.178 |
| CTGATCAG | 0.142 |
| CGTATCAA | -0.00371 |
| GCACTTGA | -0.0825 |
| ATCACGAC | -0.0343 |
| AGATTCTC | 0.11 |
| ACACCTTA | -0.0394 |
| ATGCGCTC | -0.0499 |
| TGATTCCA | -0.127 |
| ATTGTCGA | 0.139 |
| ACATAAGA | 0.0039 |
| AATGCAGG | -0.0832 |
| CACATGTC | -0.135 |
| AACAGACA | 0.166 |
| AACAGCAG | 0.0582 |
| AGATGCAA | -0.206 |
| CAATTCCG | 0.315 |
| GACAGACC | -0.0221 |
| AGAGTCCT | -0.205 |
| GATCCTGC | -0.0407 |
| CCCGAAGC | 0.0751 |
| TACTGCCA | -0.0195 |

Some of the entries so far, bar-delimited:
Sequence | PBM E-score
AGATGCAA | -0.206
AGAGTCCT | -0.205

(next part)

| Sequence | PBM E-score |
| --- | --- |
| CACTTATG | 0.0163 |
| GACCCAGA | -0.0246 |
| ATTAAAAC | 0.286 |
| GCGCCAAC | -0.0536 |
| TCTTCTCA | 0.0598 |
| CGCGGGAG | -0.167 |
| ACCAGAGT | -0.251 |
| CAGGAGCC | -0.158 |
| AGTGCGCA | -0.0316 |
| ACTACGAT | 0.0304 |
| ATGCGCCG | 0.164 |
| GTGGCACA | -0.186 |
| AGGTTGGC | -0.3 |
| AGTGTACC | -0.258 |
| CCGATGAA | 0.203 |
| TAGCCCGA | 0.0471 |
| CTGGTTCC | 0.047 |
| GCCGGCGC | 0.406 |
| CTTTTTTC | 0.114 |
| ACCTGCTA | -0.00094 |
| ACTTATCC | 0.178 |
| AGTTGAGG | -0.00602 |
| GCCTGGAC | -0.138 |
| AAGGTTTC | -0.0314 |
| ATTGAATC | -0.0312 |

| Sequence | PBM E-score |
| --- | --- |
| AGAGAAGG | -0.16 |
| ATTTCACG | 0.147 |
| AGACTAAG | -0.0179 |
| GAGCTTGA | -0.0376 |
| CGGAACCC | 0.279 |
| GTCCGCAA | 0.148 |
| ATGGCAGG | 0.043 |
| GGAGTCAC | -0.142 |
| GCCTTTCA | 0.00092 |
| AGACAAGG | -0.0717 |
| ATGGGCGA | -0.242 |
| ACTATGAA | -0.0044 |
| CGCAGCTC | -0.167 |
| GCGTCTAA | -0.0135 |
| AAATACTC | 0.184 |
| AGGTCGCG | -0.0119 |
| CGAGAGGC | -0.21 |
| ACCTACCA | -0.255 |
| CGCTAGAA | -0.00437 |
| ATGGCGGG | 0.00659 |
| CGGCAGCA | 0.0779 |
| TCGTGGCA | -0.00509 |
| CGACTTCC | -0.124 |
| GCGCTTAA | -0.112 |
| ACACTGGA | 0.0234 |

In a second layout: entries from further up
Sequence	PBM E-score
GCCTTTCA	0.00092
AGACAAGG	-0.0717
ATGGGCGA	-0.242

(listing goes on)

| Sequence | PBM E-score |
| --- | --- |
| GCTGTATA | -0.0828 |
| AACGCCGT | 0.119 |
| AATCAGCG | 0.164 |
| CCTATTGC | -0.119 |
| AAATACCT | -0.105 |
| AAATTCTC | 0.0709 |
| GCATGGGA | -0.159 |
| CGACCTGA | -0.00346 |
| GATCCCAA | -0.16 |
| GAAGGTTA | 0.0472 |
| ATAACTTC | 0.202 |
| GCCACTGA | -0.0754 |
| CCCTTGAG | 0.0101 |
| AAGGAGGA | -0.0377 |
| CCATAACG | 0.0326 |
| GGAAAATA | 0.239 |
| GAGCCTGA | -0.133 |
| AACGTCTA | 0.0553 |
| GACATACA | 0.0469 |
| ACTAACTG | -0.0468 |
| GTAGAGGA | -0.122 |
| CATTTGTC | 0.0286 |
| GCCAGAGA | -0.0888 |
| CATGAGGG | -0.212 |
| CATACTGA | -0.0139 |

| Sequence | PBM E-score |
| --- | --- |
| ACCCTCGG | 0.211 |
| CAATGCTA | -0.00612 |
| CGTTTGCA | 0.0194 |
| CCGCTCGC | 0.124 |
| CAAGGAAC | 0.168 |
| AGGCCAAA | 0.0579 |
| CTGTCGAA | -0.118 |
| AGTGATAA | 0.0452 |
| GCTTAAGA | 0.0346 |
| AAGATTCG | 0.226 |
| AAAGCAAG | 0.14 |
| AGCTAACG | -0.0595 |
| CTCAAGGA | 0.0167 |
| AAGCGCTG | 0.0039 |
| TCAGCCGA | 0.272 |
| ACCCATAG | -0.342 |
| AAGACCTC | -0.208 |
| GCAGGACA | 0.11 |
| CTGTTACA | 0.0127 |
| CCTCGCTA | -0.277 |
| ATATAAGA | 0.213 |
| ACCCGTTA | 0.106 |
